Taken from: PubChem BioAssay AID493246 (Drosophila RNAi Screening Center, 2011)
Assay: 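Identify essential fly genes by loss of cell viability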 (primary screen). System: Drosophila Kc and S2R+ cells. Knock-down reagent: long dsRNA against Drosophila genes. Detection: 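Cell number per well after knock-down, printed as raw plate values; calls were based on per-plate z-scores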. Scale: Kc cell number and S2R+ cell number: higher = more cells remaining. Call rule: 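Active when the per-plate z-score of cell number is 3 or more in the direction of fewer cells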.
The screen tested about 21,000 reagents; shown is a random part of those with a known target gene and a result. Of all reagents, 429 (2%) got an active call. 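Values are raw and not normalised between plates; calls rest on per-plate z-scores that were not deposited.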 A plus sign joins genes that one reagent is predicted to hit. Reagent sequences are not shown. Not stated in the record: the amount of reagent, the time to read-out.

gene knocked down | dsRNA | Kc cell number, rep 1 | Kc cell number, rep 2 | S2R+ cell number, rep 1 | S2R+ cell number, rep 2 | activity call
ssp7 | DRSC18878 | 1.62e6 | 1.82e6 | 1.14e6 | 1.18e6 | inactive
ttk | DRSC14078 | 1.23e6 | 1.55e6 | 1.10e6 | 1.13e6 | inactive
ttk | DRSC17091 | 1.34e6 | 1.37e6 | 1.04e6 | 1.13e6 | inactive
muc | DRSC02832 | 1.67e6 | 1.55e6 | 1.20e6 | 1.39e6 | inactive
Rbm13 | DRSC17749 | 1.62e6 | 1.64e6 | 9.39e5 | 9.57e5 | inactive
CG12609 | DRSC19473 | 1.60e6 | 1.74e6 | 1.06e6 | 1.27e6 | inactive
Or45b | DRSC07488 | 1.71e6 | 1.75e6 | 1.37e6 | 1.51e6 | inactive
lolal | DRSC06948 | 1.42e6 | 1.48e6 | 1.08e6 | 1.08e6 | inactive
mTerf5 | DRSC16209 | 1.54e6 | 1.61e6 | 1.31e6 | 1.34e6 | inactive
eEF2 | DRSC03737 | 1.45e6 | 1.49e6 | 1.22e6 | 3.53e5 | inactive
l(2)27Cb (retired record) | DRSC02758 | 1.48e6 | 1.35e6 | 8.86e5 | 1.05e6 | inactive
Cpr51A | DRSC05969 | 1.50e6 | 1.48e6 | 1.32e6 | 1.37e6 | inactive
CG13243 | DRSC01920 | 1.80e6 | 2.02e6 | 1.31e6 | 1.43e6 | inactive
eRF3 | DRSC03322 | 1.62e6 | 1.69e6 | 1.17e6 | 1.32e6 | inactive
CCHa2 | DRSC14835 | 1.39e6 | 1.55e6 | 1.02e6 | 1.08e6 | inactive
pim | DRSC03591 | 1.25e6 | 1.33e6 | 7.92e5 | 8.39e5 | inactive
Jon66Cii | DRSC10778 | 1.31e6 | 1.34e6 | 1.15e6 | 1.22e6 | inactive
be | DRSC19607 | 5.74e5 | – | 7.82e5 | – | inactive
be | DRSC19944 | 1.53e6 | 1.55e6 | 1.06e6 | 1.18e6 | inactive
be | DRSC19945 | 1.59e6 | 1.59e6 | 1.11e6 | 1.22e6 | inactive
CG31064 | DRSC14756 | 1.74e6 | 1.83e6 | 1.10e6 | 1.27e6 | inactive
CG31064 | DRSC15941 | 1.51e6 | 1.50e6 | 1.05e6 | 1.13e6 | inactive
CG31064 | DRSC15942 | 1.51e6 | 1.50e6 | 9.78e5 | 1.10e6 | inactive
CG31064 | DRSC15943 | 1.58e6 | 1.64e6 | 9.13e5 | 1.02e6 | inactive
Jhbp3 | DRSC12247 | 1.87e6 | 1.91e6 | 1.35e6 | 1.45e6 | inactive
CG3907 | DRSC04432 | 1.55e6 | 1.54e6 | 1.21e6 | 1.35e6 | inactive
Osi6 | DRSC12128 | 1.46e6 | 1.50e6 | 1.27e6 | 1.40e6 | inactive
Ir41a | DRSC04730 | 1.48e6 | 1.62e6 | 1.02e6 | 1.16e6 | inactive
Ir41a | DRSC04875 | 1.61e6 | 1.65e6 | 1.22e6 | 1.32e6 | inactive
Rip11 | DRSC20000 | 1.52e6 | 1.55e6 | 1.04e6 | 1.17e6 | inactive
GIIIspla2 | DRSC18094 | 5.56e5 | – | 8.08e5 | – | inactive
Scsalpha2 | DRSC16003 | 1.48e6 | 1.59e6 | 1.13e6 | 1.15e6 | inactive
CG6701 | DRSC07007 | 1.57e6 | 1.68e6 | 1.08e6 | 1.06e6 | inactive
PIG-B | DRSC08216 | 1.34e6 | 1.53e6 | 1.06e6 | 1.17e6 | inactive
Rh4 | DRSC11268 | 1.38e6 | 1.67e6 | 1.41e6 | 1.47e6 | inactive
Fad2 | DRSC11165 | 9.54e5 | 9.88e5 | 8.79e5 | 1.06e6 | inactive
CAH16 | DRSC15371 | 1.54e6 | 1.58e6 | 1.11e6 | 1.19e6 | inactive
Cpr47Ee | DRSC06343 | 6.21e5 | 9.29e5 | 5.29e5 | 6.37e5 | active
CG7497 | DRSC10857 | 1.75e6 | 1.82e6 | 1.41e6 | 1.47e6 | inactive
CG7766 | DRSC18424 | 5.35e5 | – | 9.06e5 | – | inactive
Npc2b | DRSC15464 | 1.33e6 | 1.39e6 | 1.18e6 | 1.30e6 | inactive
CG14419 | DRSC17916 | 1.61e6 | 1.57e6 | 1.05e6 | 1.17e6 | inactive
Ctl2 | DRSC14423 | 5.31e5 | – | 7.64e5 | – | inactive
sprt | DRSC07323 | 1.35e6 | 1.42e6 | 1.05e6 | 1.14e6 | inactive
Cc2d2a | DRSC06750 | 1.53e6 | 1.57e6 | 1.15e6 | 1.26e6 | inactive
L | DRSC06666 | 1.62e6 | 1.56e6 | 1.09e6 | 1.08e6 | inactive
L | DRSC06668 | 1.56e6 | 1.50e6 | 1.21e6 | 1.24e6 | inactive
Cse1 | DRSC03287 | 1.38e6 | 1.41e6 | 9.83e5 | 1.08e6 | inactive
CG15930 | DRSC18107 | 1.55e6 | 1.56e6 | 9.97e5 | 1.17e6 | inactive
CG15199 | DRSC19646 | 1.51e6 | 1.56e6 | 1.10e6 | 1.30e6 | inactive
TwdlJ | DRSC15812 | 1.60e6 | 1.66e6 | 9.63e5 | 1.20e6 | inactive
CG5126 | DRSC00680 | 1.28e6 | 1.60e6 | 1.34e6 | 1.22e6 | inactive
CG4570 | DRSC15602 | 1.38e6 | 1.40e6 | 1.27e6 | 1.35e6 | inactive
CG31038 | DRSC15051 | 4.61e5 | – | 8.19e5 | – | inactive
CG31038 | DRSC16326 | 1.79e6 | 1.83e6 | 1.15e6 | 1.23e6 | inactive
CG31038 | DRSC16327 | 1.57e6 | 1.64e6 | 1.05e6 | 1.13e6 | inactive
QIL1 | DRSC10888 | 1.33e6 | 1.41e6 | 1.12e6 | 1.21e6 | inactive
CG14854 | DRSC14978 | 1.27e6 | 1.33e6 | 1.16e6 | 1.28e6 | inactive
vir | DRSC04377 | 1.59e6 | 1.66e6 | 1.21e6 | 1.17e6 | inactive
CG15450 | DRSC20522 | 1.37e6 | 1.30e6 | 1.01e6 | 1.14e6 | inactive
kappaB-Ras + CG30503 | DRSC06619 | 1.53e6 | 1.56e6 | 1.23e6 | 1.35e6 | inactive
kappaB-Ras + CG30503 | DRSC07636 | 1.58e6 | 1.64e6 | 1.23e6 | 1.34e6 | inactive
CG14892 | DRSC15014 | 1.36e6 | 1.35e6 | 9.19e5 | 1.04e6 | inactive
Gcat | DRSC09719 | 1.62e6 | 1.55e6 | 1.39e6 | 1.49e6 | inactive
l(3)S110416 (retired record) | DRSC17094 | 1.54e6 | 1.65e6 | 1.15e6 | 1.23e6 | inactive
Pmm2 | DRSC09780 | 1.30e6 | 1.55e6 | 1.29e6 | 1.41e6 | inactive
Dredd | DRSC18461 | 5.36e5 | – | 8.54e5 | – | inactive
Rab10 | DRSC20572 | 1.49e6 | 1.58e6 | 9.46e5 | 1.10e6 | inactive
Coq5 | DRSC19849 | 1.59e6 | 1.56e6 | 1.06e6 | 1.16e6 | inactive
CG13044 | DRSC09925 | 1.58e6 | 1.58e6 | 1.19e6 | 1.34e6 | inactive
GXIVsPLA2 | DRSC10243 | 1.48e6 | 1.50e6 | 1.33e6 | 1.38e6 | inactive
CG3663 | DRSC04402 | 1.43e6 | 1.51e6 | 1.19e6 | 1.33e6 | inactive
Eglp3 | DRSC04293 | 1.62e6 | 1.65e6 | 1.22e6 | 1.31e6 | inactive
Cyp4e2 | DRSC07371 | 1.29e6 | 1.39e6 | 1.16e6 | 1.22e6 | inactive
RpL10Aa | DRSC15518 | 1.28e6 | 1.34e6 | 7.41e5 | 8.93e5 | inactive

Already shown: entries from further up.
gene knocked down | dsRNA | Kc cell number, rep 1 | Kc cell number, rep 2 | S2R+ cell number, rep 1 | S2R+ cell number, rep 2 | activity call
Scsalpha2 | DRSC16003 | 1.48e6 | 1.59e6 | 1.13e6 | 1.15e6 | inactive
CG6701 | DRSC07007 | 1.57e6 | 1.68e6 | 1.08e6 | 1.06e6 | inactive
PIG-B | DRSC08216 | 1.34e6 | 1.53e6 | 1.06e6 | 1.17e6 | inactive
Rh4 | DRSC11268 | 1.38e6 | 1.67e6 | 1.41e6 | 1.47e6 | inactive
Fad2 | DRSC11165 | 9.54e5 | 9.88e5 | 8.79e5 | 1.06e6 | inactive
